# Results: US8765959B2, “Piperidine derivatives” (Boehringer Ingelheim International GmbH, priority 2011, dated 2014)
# Sequences of proteins named here, by UniProt entry; tags and fusion partners are left off. Residues count along the entry.
# UniProt O00763, 129-2458 limits assumed: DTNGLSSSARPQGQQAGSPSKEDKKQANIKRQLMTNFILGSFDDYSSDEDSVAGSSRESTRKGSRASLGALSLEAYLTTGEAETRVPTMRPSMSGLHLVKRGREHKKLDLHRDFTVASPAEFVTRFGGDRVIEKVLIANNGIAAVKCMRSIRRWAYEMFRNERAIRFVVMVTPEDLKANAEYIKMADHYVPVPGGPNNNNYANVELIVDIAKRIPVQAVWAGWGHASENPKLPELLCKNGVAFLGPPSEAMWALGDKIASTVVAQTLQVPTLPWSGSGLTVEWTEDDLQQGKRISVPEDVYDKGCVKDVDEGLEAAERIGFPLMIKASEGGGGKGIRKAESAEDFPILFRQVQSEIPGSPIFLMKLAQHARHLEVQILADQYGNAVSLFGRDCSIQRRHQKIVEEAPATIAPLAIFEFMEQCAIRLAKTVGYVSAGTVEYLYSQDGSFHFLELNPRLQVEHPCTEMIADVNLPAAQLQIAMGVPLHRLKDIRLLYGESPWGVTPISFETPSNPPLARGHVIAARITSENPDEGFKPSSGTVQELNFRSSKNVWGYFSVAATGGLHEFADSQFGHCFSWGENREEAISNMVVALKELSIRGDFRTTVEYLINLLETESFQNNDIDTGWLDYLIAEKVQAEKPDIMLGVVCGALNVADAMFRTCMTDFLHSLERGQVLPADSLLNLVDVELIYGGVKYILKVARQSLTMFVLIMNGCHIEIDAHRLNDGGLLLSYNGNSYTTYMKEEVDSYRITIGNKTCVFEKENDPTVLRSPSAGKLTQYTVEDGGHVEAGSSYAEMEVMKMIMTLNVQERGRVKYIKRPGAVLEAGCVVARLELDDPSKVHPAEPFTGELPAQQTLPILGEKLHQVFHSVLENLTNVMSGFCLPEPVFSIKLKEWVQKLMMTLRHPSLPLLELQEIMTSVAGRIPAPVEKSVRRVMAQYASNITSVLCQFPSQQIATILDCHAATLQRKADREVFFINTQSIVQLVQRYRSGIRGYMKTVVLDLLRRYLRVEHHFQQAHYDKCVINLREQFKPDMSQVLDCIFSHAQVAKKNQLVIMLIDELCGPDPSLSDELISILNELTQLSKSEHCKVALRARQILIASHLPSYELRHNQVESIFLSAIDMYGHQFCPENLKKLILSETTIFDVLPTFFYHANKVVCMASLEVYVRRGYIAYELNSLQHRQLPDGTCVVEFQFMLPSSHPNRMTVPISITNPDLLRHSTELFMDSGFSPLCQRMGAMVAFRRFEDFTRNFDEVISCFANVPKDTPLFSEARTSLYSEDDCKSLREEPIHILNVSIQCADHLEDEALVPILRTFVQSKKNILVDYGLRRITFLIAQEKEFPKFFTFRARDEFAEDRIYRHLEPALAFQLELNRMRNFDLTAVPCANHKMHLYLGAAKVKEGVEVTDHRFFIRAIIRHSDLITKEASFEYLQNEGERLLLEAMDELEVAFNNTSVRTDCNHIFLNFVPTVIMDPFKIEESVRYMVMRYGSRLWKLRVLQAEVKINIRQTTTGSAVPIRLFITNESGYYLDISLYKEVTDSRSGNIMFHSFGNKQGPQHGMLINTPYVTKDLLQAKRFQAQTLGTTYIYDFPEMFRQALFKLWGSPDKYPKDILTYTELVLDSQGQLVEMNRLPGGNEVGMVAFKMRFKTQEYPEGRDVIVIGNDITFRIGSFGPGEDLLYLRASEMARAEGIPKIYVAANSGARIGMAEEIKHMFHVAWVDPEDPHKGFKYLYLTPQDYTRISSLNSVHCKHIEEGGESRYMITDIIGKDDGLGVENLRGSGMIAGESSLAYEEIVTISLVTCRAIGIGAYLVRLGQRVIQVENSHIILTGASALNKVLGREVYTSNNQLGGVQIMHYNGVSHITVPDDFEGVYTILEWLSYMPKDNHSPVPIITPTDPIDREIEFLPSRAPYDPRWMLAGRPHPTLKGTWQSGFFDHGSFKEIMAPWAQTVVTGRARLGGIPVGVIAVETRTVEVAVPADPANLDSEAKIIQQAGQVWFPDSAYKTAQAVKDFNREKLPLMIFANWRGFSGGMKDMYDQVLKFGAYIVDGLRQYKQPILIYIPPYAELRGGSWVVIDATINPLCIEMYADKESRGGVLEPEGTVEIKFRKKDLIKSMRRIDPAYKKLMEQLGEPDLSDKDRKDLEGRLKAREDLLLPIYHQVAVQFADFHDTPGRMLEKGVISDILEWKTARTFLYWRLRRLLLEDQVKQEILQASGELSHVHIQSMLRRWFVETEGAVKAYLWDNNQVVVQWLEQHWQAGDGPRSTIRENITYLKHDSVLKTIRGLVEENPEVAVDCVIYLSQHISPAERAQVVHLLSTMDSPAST
# Structures were worked out from names or drawings and are uncertain.
# Molecular target: human ACC2 (Homo sapiens, UniProt O00763)
# Assay: ACC2 assay, spectrophotometric 384 well assay (NADH-linked, coupled lactate dehydrogenase/pyruvate kinase)
# Assay type: biochemical
# Conditions: human ACC2 construct lacking 128 N-terminal amino acids, 25° C., 340 nm, 15 minutes
# Protocol: Spectrophotometric 384 Well Assay
# Malonyl CoA formation by acetyl CoA carboxylases is stoichometrically linked to the consumption of ATP. ACC2 activity is measured in a NADH-linked kinetic method measuring ADP generated during the ACC reaction using a coupled lactate dehydrogenase/pyruvate kinase reaction.
# For biological testing, a human ACC2 construct which lacks the 128 amino acids at the N-terminus for increased solubility (nt 385-6966 in Genbank entry AJ575592) is cloned. The protein is then expressed in insect cells using a baculoviral expression system. Protein purification is performed by anion exchange.
# All compounds are dissolved in dimethyl sulfoxide (DMSO) to a concentration of 10 mM.
# Assay reactions are then carried out in 384-well plates, with hACC2 in an appropriate dilution and at final assay concentrations (f.c.) of 100 mM Tris (pH 7.5), 10 mM trisodium citrate, 25 mM KHCO3, 10 mM MgCl2, 0.5 mg/ml BSA, 3.75 mM reduced L-glutathione, 15 U/ml lactate dehydrogenase, 0.5 mM phosphoenolpyruvate, 15 U/ml pyruvate kinase, compounds at different concentrations at final DMSO concentrations of 1%.
# The enzymatic reaction is then started by addition of a mixture of NADH, acetyl Coenzyme A (both 200 μM f.c.) and ATP (500 uM f.c.). The decrease of the optical density (slope S) is then determined at 25° C. at a wavelength of 340 nm over 15 minutes in a spectrophotometric reader. […]
compound,measurement,value
CCCOc1ccc(C2CCN(c3ccc(C(C)NC(C)=O)cc3OC)CC2)c(C)c1 (stereo not shown),IC50,1150 nM
